According to PubChem BioAssay AID488838 (National Center for Advancing Translational Sciences (NCATS), 2010):
Inconclusive means that the source gave no clear call. Such entries were picked first, then a sample of the others. Potencies of inconclusive entries are doubtful fits and often do not repeat. Activity calls are given as the source filed them. The call rests on the fitted dose curve; in most records, active means well fitted inhibition curve with a large enough effect; inconclusive means small, poorly fitted or top-dose-only effect; inactive means flat fitted curve, though single readings scatter.

By UniProt entry, the sequences of proteins in these tests, tags left out.
UniProt P08659, whole entry, looked up: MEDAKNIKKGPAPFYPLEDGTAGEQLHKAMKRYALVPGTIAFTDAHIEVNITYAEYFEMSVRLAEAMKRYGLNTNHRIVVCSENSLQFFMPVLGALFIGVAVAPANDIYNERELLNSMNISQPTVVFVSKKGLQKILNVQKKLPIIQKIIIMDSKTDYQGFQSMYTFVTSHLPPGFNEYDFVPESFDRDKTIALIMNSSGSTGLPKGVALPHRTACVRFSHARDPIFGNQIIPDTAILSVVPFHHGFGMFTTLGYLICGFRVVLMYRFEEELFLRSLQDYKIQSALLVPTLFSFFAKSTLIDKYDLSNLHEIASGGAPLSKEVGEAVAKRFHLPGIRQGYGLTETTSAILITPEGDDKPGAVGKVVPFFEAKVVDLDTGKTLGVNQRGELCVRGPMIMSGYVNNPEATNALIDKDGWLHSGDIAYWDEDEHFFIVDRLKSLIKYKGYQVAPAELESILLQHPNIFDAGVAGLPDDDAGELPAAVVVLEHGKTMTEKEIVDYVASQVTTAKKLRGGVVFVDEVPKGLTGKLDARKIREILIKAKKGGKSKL

The compounds below were run against Luciferin 4-monooxygenase (Photinus pyralis) (UniProt P08659) (assay: Counterscreen Assay for Enhancers of SMN2 Splice Variant Expression: Interaction with Luciferase Reporter for Further Probe SAR). Settings: purified firefly luciferase, luminescence, 5 min; activity change, negative = inhibition: at the top concentration.
Text: NIH Chemical Genomics Center [NCGC] NIH Molecular Libraries Probe Production centers Network [MLPCN] MLPCN Grant: R03 MH084179-01 Assay Submitter (PI): Elliot Androphy NCGC Assay Overview: Spinal muscular atrophy (SMA) is caused by insufficient levels of the survival motor neuron protein SMN. The SMN locus on chromosome 5q13 contains two inverted copies of SMN called SMN1 and SMN2 which are 99% identical at the amino acid level. SMN1 is a fully functional protein and SMN2 skips exon 7 90% of the time. Skipping of exon 7 produces non-functional protein product. 10% of the SMN2 protein includes exon 7 and is fully functional. In the SMA disease state, mutations in the SMN1 locus are the cause of the disease state. Because only 10% of SMN2 is of the fully functional form, it is not sufficient to overcome the deficiency produced by the loss of the SMN1 product. A therapy that either increases the amount of SMN2 product made increases the inclusion of exon 7 has been proposed for the treatment of SMA. We have designed an assay to identify small molecules that can increase the amount of functional SMN2 product by appending a luciferase reporter gene after the native SMN2 gene, such that inclusion of exon 7 in the expressed product places the luciferase sequence in frame, thus generating functional luciferase enzyme. One potential source of false positives in the primary screening assay is stabilization of the reporter luciferase via direct binding. This assay attempts to identify such compounds by screening directly for luciferase activity in the absence of the cellular system.
NCGC Assay Protocol Summary: The primary screen utilizes a luciferase reporter gene assay, combining the promoter and splicing based cassettes in tandem with the major portion of the native SMN1 cDNA, and then transfected into HEK293 cells. Compounds that modulate luciferase signal presumably modulate expression of […]. In this assay, we utilize purified firefly luciferase in lieu of a cellular reporter to identify compounds interacting directly with luciferase in the primary screen. Sequence, Parameter, Value, Description (1) Reagent, 2.5 uL, Enzyme in buffer (note A) (2) Compound, 23 nL, From stock solutions (3) Time, 5 minutes, Room temp (4) Reagent#2.5 ul, Luciferase detection reagent (note B) (5) Detector, 1 sec integrate, Luminescent read on Viewlux (note C) Sigma enzyme (1 mg) considered to be MW 61,000 diluted in 357 ul assay buffer to 50 uM stock. A - Enzyme and buffer consists of 50 mM Tris-acetate pH 7.6, 10 mM Mg acetate 0.05% BSA, 0.01% Tween and 5 nM firefly luciferase B - Detection reagent = britelite plus diluted 1:10 in PBS C - Viewlux settings were 1 second integration medium sensitivity Keywords: Spinal muscular atrophy, SMA, SMN2, high throughput screening, MLSMR, MLPCN, NIH Roadmap, qHTS and NCGC

| Compound | Potency | activity change, negative = inhibition |
| --- | --- | --- |
| O=C(NCc1ccccc1)C1CCN(c2nc(-c3ccc(Br)cc3)cs2)CC1 | inconclusive: 35.7 µM [inhibitor, partial curve] | – |
| NC(=O)C1CCN(c2nc(-c3cccc4ccccc34)cs2)CC1 | inconclusive: 80 µM [inhibitor, partial curve] | – |
| CN(C)c1cccc(-c2cc(N3CCC(C(N)=O)CC3)ncn2)c1 | – | inactive: -20% |
| CC(C)Oc1cccc(-c2cnc(N3CCC(C(N)=O)CC3)s2)c1 | active: 0.8 µM | – |
| NC(=O)C1CCN(c2ncc(-c3cccc(N4CCCCC4)c3)s2)CC1 | inconclusive: 101 µM [inhibitor, partial curve] | – |
| Cc1ccc(-c2ccnc(N3CCC(C(N)=O)CC3)n2)cc1 | inconclusive: 45 µM [inhibitor, partial curve] | – |
| O=C(C1CCN(c2nc(-c3ccc(Br)cc3)cs2)CC1)N1CCOCC1 | inconclusive: 56.6 µM [inhibitor, partial curve] | – |
| NC(=O)C1CCN(c2cc(-c3ccc4c(c3)OCCCO4)ncn2)CC1 | inconclusive: 160 µM [inhibitor, partial curve] | – |
| NC(=O)C1CCN(c2ncc(-c3ccc4c(c3)OCCCO4)s2)CC1 | active: 2.84 µM | – |
| CN(C)c1ccc(-c2csc(N3CCC(C(N)=O)CC3)n2)cc1 | – | inactive: -29% |
| COc1cc(OC)cc(-c2csc(N3CCC(C(N)=O)CC3)n2)c1 | inconclusive: 127 µM [inhibitor, partial curve, poor fit] | – |
| N#Cc1ccc(-c2csc(N3CCC(C(N)=O)CC3)n2)cc1 | – | inactive: -17.5% |
| NC(=O)C1CCN(c2nc(-c3ccc4c(c3)CCO4)cs2)CC1 | inconclusive: 71.3 µM [inhibitor, partial curve] | – |
| CN(C)c1cccc(-c2cnc(N3CCC(c4ncc[nH]4)CC3)s2)c1 | active: 20.1 µM | – |
| CC(=O)NC1CCN(c2nc(-c3ccc(Br)cc3)cs2)CC1 | – | inactive: -15.6% |
| NC(=O)C1CCN(c2nnc(-c3ccc4c(c3)OCCCO4)s2)CC1 | active: 3.57 µM | – |
| CS(=O)(=O)c1ccc(-c2csc(N3CCC(C(N)=O)CC3)n2)cc1 | – | inactive: -17.5% |
| CC(C)(C)c1ccc(-c2csc(N3CCC(C(N)=O)CC3)n2)cc1 | inconclusive: 80 µM [inhibitor, partial curve] | – |
| NC(=O)C1CCN(c2ncc(-c3cccc(N4CCCC4)c3)s2)CC1 | inconclusive: 50.5 µM [inhibitor, partial curve] | – |
| CC(=O)Nc1ccc(-c2csc(N3CCC(C(N)=O)CC3)n2)cc1 | – | inactive: -14% |

As entered above:
Entry of CN(C)c1cccc(-c2cc(N3CCC(C(N)=O)CC3)ncn2)c1 under activity change, negative = inhibition: inactive: -20%
Entry of NC(=O)C1CCN(c2ncc(-c3ccc4c(c3)OCCCO4)s2)CC1 under Potency: active: 2.84 µM

(list continues)

| Compound | Potency | activity change, negative = inhibition |
| --- | --- | --- |
| NC(=O)C1CCN(c2nc(-c3ccc(Oc4ccccc4)cc3)cs2)CC1 | inconclusive: 45 µM [inhibitor, partial curve] | – |
| CC(C)Oc1ccc(-c2csc(N3CCC(C(N)=O)CC3)n2)cc1 | inconclusive: 71.3 µM [inhibitor, partial curve] | – |
| NC(=O)C1CCN(c2ncc(-c3ccc4c(c3)OCO4)s2)CC1 | active: 3.18 µM | – |
| Nc1nc(N)c2c(OCC3CCN(Cc4ccccc4F)CC3)cccc2n1 | – | inactive: -16.4% |
| O=C(O)C1CCN(c2nc(-c3ccc(Br)cc3)cs2)CC1 | active: 1.42 µM | – |
| N#Cc1cccc(-c2csc(N3CCC(C(N)=O)CC3)n2)c1 | inconclusive: 101 µM [inhibitor, partial curve, poor fit] | – |
| NC(=O)C1CCN(c2ncnc(-c3ccc4c(c3)OCCCO4)n2)CC1 | inconclusive: 201 µM [inhibitor, partial curve, poor fit] | – |
| NC(=O)C1CCN(c2ncc(-c3cccc(F)c3)s2)CC1 | inconclusive: 63.5 µM [inhibitor, partial curve] | – |
| COc1ccc(-c2csc(N3CCC(C(N)=O)CC3)n2)cc1OC | – | inactive: -25.8% |
| NC(=O)C1CCN(c2nccc(-c3ccc4c(c3)OCCCO4)n2)CC1 | – | inactive: -29.5% |
| NC(=O)C1CCN(c2ncc(Br)s2)CC1 | – | inactive: -22.6% |
| CN(C)c1cccc(-c2ncnc(N3CCC(C(N)=O)CC3)n2)c1 | – | inactive: -22.2% |
| NC(=O)C1CCN(c2nc(-c3ccc(OC(F)(F)F)cc3)cs2)CC1 | – | inactive: -19.4% |
| Cc1cnc(N2CCC(C(N)=O)CC2)nc1-c1cccc(N(C)C)c1 | – | inactive: -6.67% |
| NC(=O)C1CCN(c2nc(-c3cccc(Br)c3)cs2)CC1 | active: 31.8 µM | – |
| COc1cc(-c2csc(N3CCC(C(N)=O)CC3)n2)cc(OC)c1OC | – | inactive: -11.5% |
| CSc1ccc(-c2cnc(N3CCC(C(N)=O)CC3)s2)cc1 | inconclusive: 40.1 µM [inhibitor, partial curve] | – |
| O=C(NCCc1ccccc1)C1CCN(c2nc(-c3ccc(Br)cc3)cs2)CC1 | inconclusive: 31.8 µM [inhibitor, partial curve] | – |
| NC(=O)C1CCN(c2nc(-c3cccc([N+](=O)[O-])c3)cs2)CC1 | inconclusive: 101 µM [inhibitor, partial curve, poor fit] | – |
| N#CC1CCN(c2nc(-c3ccc(Br)cc3)cs2)CC1 | inconclusive: 45 µM [inhibitor, partial curve] | – |
